Residue numbers refer to the chain shown, from its start. In names and notes the source's numbering stands.
Tested on: rat olfactory CNG channel α subunit
Experiment: Excised inside-out patch recordings, cyclic nucleotide dose-response of CNG channel constructs
Type: biochemical
Conditions: Hill coefficient
Method: As described in greater detail herein, the effects of modifications to CNG channels were assessed using the Hill equation, I/Imax=[cNMP]^N/([cNMP]^N+K1/2^N), where I/Imax is the fraction of maximal current, cNMP represents cyclic nucleotide, K1/2 is the concentration that gives half-maximal current, and N is the Hill coefficient, an index of cooperativity. I/Imax^cGMP/Imax^cAMP is the current induced by saturating cGMP divided by the current induced by saturating cAMP. Data (mean±standard deviation of three experiments) were obtained from excised membrane patches using standard patch clamp techniques.
To assess the cyclic nucleotide sensitivity of different CNG channel constructs, excised, inside-out patch recordings were made at room temperature (20-21° C.) using an Axopatch-200A patch clamp amplifier (Axon Instruments Inc.). Pipettes were pulled from borosilicate glass and heat polished. Pipettes were lowered onto the cells and gigaohm seals were formed. Patches were excised by shearing cells from the pipette with a jet of liquid. Ionic currents were elicited by 250 ms pulses to membrane potentials of +50 and −50 mV from a holding potential of 0 mV. Current records were sampled at five times the filter setting and stored on an IBM compatible computer. Records were corrected for errors due to series resistance (pipette resistance was 4.1 ±0.1 MΩ). Both the pipette and bath solutions contained (mM): 130 NaCl, 2 HEPES, 0.02 EDTA, and 1 EGTA, pH 7.6. Cyclic nucleotide-induced currents were obtained from the difference between currents in the presence and absence of cyclic nucleotides. Dose response curves for cAMP and cGMP were obtained at +50 and −50 mV in the same patch. The effects of the modifications were assessed using the Hill equation, I/Imax=[cNMP]^N/([cNMP]^N+K1/2^N), where I/Imax is the fraction of maximal current, cNMP represents cyclic nucleotide, K1/2 is the concentration that gives half-maximal current, and N is the Hill coefficient, an index of cooperativity. K1/2 and N for cAMP were 36±5 μM, 10±2 μM, 1.0±0.3 μM, and […] for WT, E583M, C460/E583M, and Δ61-90/C460W/E583M channels, respectively (See, Rich et al., J. Gen. Physiol. [2001], supra).
The cyclic nucleotide sensitivity of the C460W/E583M CNG channel was assessed in excised, inside-out patches as known in the art (See, Rich et al. [2001], supra). K1/2 and N were 1.1±0.3 μM and 2.1±0.4 at +50 mV; and 1.0±0.3 μM and 2.0 ±0.3 at −50 mV (n=11). With these values, the cAMP concentration could be calculated from currents measured in perforated patch experiments (Rich et al. Proc. Natl. Acad. Sci. [2001], supra).

B1: Δ61-90/C460W/E583M: modified rat olfactory cyclic nucleotide-gated ion channel containing the Δ61-90/C460W/E583M mutation, SEQ ID NO:7 (protein, listed as Rattus norvegicus)
chain: MMTEKSNGVKSSPANNHNHHPPPSIKANGKDDHRAGSRPQSVAADDDTSPELQRLAEMDTPRPDSFLERFRGPELQTVTTHQGDDKGGKDGEGKGTKKKFELFVLDPAGDWYYRWLFVIAMPVLYNWCLLVARACFSDLQRNYFVVWLVLDYFSDTVYIADLIIRLRTGFLEQGLLVKDPKKLRDNYIHTLQFKLDVASIIPTDLIYFAVGIHSPEVRFNRLLHFARMFEFFDRTETRTSYPNIFRISNLVLYILVIIHWNACIYYVISKSIGFGVDTWVYPNITDPEYGYLAREYIYCLYWSTLTLTTIGETPPPVKDEEYLFVIFDFLIGVLIFATIVGNVGSMISNMNATRAEFQAKIDAVKHYMQFRKVSKDMEAKVIKWFDYLWTNKKTVDEREVLKNLPAKLRAEIAINVHLSTLKKVRIFQDWEAGLLVELVLKLRPQVFSPGDYICRKGDIGKEMYIIKEGKLAVVADDGVTQYALLSAGSCFGEISILNIKGSKMGNRRTANIRSLGYSDLFCLSKDDLMEAVTEYPDAKKVLEERGREILMKMGLLDENEVAASMEVDVQEKLEQLETNMDTLYTRFARLLAEYTGAQQKLKQRITVLETKMKQNHEDDYLSDGINTPEPTAAE
+50 mV
  N^cAMP: 2.1 ± 0.1
  N^cGMP: 1.8 ± 0.2
−50 mV
  N^cAMP: 2.2 ± 0.1
  N^cGMP: 2.6 ± 0.2

B2: WT: wild-type rat olfactory cyclic nucleotide gated channel α subunit, amino acid sequence SEQ ID NO:8 (protein, listed as Rattus norvegicus)
chain: MMTEKSNGVKSSPANNHNHHPPPSIKANGKDDHRAGSRPQSVAADDDTSPELQRLAEMDTPRRGRGGFQRIVRLVGVIRDWANKNFREEEPRPDSFLERFRGPELQTVTTHQGDDKGGKDGEGKGTKKKFELFVLDPAGDWYYRWLFVIAMPVLYNWCLLVARACFSDLQRNYFVVWLVLDYFSDTVYIADLIIRLRTGFLEQGLLVKDPKKLRDNYIHTLQFKLDVASIIPTDLIYFAVGIHSPEVRFNRLLHFARMFEFFDRTETRTSYPNIFRISNLVLYILVIIHWNACIYYVISKSIGFGVDTWVYPNITDPEYGYLAREYIYCLYWSTLTLTTIGETPPPVKDEEYLFVIFDFLIGVLIFATIVGNVGSMISNMNATRAEFQAKIDAVKHYMQFRKVSKDMEAKVIKWFDYLWTNKKTVDEREVLKNLPAKLRAEIAINVHLSTLKKVRIFQDCEAGLLVELVLKLRPQVFSPGDYICRKGDIGKEMYIIKEGKLAVVADDGVTQYALLSAGSCFGEISILNIKGSKMGNRRTANIRSLGYSDLFCLSKDDLMEAVTEYPDAKKVLEERGREILMKEGLLDENEVAASMEVDVQEKLEQLETNMDTLYTRFARLLAEYTGAQQKLKQRITVLETKMKQNHEDDYLSDGINTPEPTAAE
+50 mV
  N^cAMP: 2.2 ± 0.1
  N^cGMP: 2.3 ± 0.1
−50 mV
  N^cAMP: 2.2 ± 0.1
  N^cGMP: 2.5 ± 0.4

B3: E583M: modified rat olfactory cyclic nucleotide-gated ion channel containing the E583M mutation, SEQ ID NO:5 (protein, listed as Rattus norvegicus)
chain: B2 chain with E583M
+50 mV
  N^cAMP: 2.4 ± 0.2
  N^cGMP: 2.4 ± 0.12
−50 mV
  N^cAMP: 2.2 ± 0.1
  N^cGMP: 1.9 ± 0.2

B4: C460W/E583M: modified rat olfactory cyclic nucleotide-gated ion channel containing the C460W/E583M mutation, SEQ ID NO:6 (protein, listed as Rattus norvegicus)
chain: B2 chain with C460W, E583M
+50 mV
  N^cAMP: 2.7 ± 0.2
  N^cGMP: 2.8 ± 0.3
−50 mV
  N^cAMP: 2.2 ± 0.3
  N^cGMP: 2.7 ± 0.1
